The results in this text go back to paper PMC11130243.

Chains of the proteins cited; added tags and fusions are not shown.
UniProt P29597: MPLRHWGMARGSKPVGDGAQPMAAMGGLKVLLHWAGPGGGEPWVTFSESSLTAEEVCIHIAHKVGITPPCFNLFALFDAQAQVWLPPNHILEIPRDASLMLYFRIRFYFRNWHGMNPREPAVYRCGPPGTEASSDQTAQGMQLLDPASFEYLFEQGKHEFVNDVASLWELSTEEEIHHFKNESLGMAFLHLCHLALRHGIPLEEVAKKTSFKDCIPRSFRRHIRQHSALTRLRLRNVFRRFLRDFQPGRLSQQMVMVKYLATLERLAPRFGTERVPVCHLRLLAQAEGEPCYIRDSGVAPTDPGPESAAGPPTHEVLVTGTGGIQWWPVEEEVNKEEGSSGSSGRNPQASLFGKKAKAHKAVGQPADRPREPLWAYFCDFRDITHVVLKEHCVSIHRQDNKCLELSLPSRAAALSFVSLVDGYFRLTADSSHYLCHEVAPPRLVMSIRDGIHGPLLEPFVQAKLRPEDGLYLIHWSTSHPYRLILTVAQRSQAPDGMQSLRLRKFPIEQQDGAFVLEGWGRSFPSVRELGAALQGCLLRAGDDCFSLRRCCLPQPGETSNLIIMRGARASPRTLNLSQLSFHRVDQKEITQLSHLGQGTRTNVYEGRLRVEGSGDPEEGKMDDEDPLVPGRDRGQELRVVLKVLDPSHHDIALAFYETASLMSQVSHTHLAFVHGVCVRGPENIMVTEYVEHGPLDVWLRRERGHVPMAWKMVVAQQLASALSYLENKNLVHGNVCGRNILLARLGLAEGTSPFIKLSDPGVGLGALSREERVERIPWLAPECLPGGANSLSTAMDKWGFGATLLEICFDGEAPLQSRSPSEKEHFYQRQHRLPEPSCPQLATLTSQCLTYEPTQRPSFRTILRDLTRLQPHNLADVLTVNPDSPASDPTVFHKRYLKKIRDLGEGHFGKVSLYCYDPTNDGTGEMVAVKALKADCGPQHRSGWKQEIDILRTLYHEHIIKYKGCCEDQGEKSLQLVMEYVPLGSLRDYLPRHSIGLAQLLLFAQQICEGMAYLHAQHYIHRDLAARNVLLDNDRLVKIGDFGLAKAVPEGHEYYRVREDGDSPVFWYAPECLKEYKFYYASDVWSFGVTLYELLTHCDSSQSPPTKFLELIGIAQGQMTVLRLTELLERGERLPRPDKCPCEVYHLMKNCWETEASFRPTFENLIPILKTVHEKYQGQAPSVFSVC
UniProt P23458: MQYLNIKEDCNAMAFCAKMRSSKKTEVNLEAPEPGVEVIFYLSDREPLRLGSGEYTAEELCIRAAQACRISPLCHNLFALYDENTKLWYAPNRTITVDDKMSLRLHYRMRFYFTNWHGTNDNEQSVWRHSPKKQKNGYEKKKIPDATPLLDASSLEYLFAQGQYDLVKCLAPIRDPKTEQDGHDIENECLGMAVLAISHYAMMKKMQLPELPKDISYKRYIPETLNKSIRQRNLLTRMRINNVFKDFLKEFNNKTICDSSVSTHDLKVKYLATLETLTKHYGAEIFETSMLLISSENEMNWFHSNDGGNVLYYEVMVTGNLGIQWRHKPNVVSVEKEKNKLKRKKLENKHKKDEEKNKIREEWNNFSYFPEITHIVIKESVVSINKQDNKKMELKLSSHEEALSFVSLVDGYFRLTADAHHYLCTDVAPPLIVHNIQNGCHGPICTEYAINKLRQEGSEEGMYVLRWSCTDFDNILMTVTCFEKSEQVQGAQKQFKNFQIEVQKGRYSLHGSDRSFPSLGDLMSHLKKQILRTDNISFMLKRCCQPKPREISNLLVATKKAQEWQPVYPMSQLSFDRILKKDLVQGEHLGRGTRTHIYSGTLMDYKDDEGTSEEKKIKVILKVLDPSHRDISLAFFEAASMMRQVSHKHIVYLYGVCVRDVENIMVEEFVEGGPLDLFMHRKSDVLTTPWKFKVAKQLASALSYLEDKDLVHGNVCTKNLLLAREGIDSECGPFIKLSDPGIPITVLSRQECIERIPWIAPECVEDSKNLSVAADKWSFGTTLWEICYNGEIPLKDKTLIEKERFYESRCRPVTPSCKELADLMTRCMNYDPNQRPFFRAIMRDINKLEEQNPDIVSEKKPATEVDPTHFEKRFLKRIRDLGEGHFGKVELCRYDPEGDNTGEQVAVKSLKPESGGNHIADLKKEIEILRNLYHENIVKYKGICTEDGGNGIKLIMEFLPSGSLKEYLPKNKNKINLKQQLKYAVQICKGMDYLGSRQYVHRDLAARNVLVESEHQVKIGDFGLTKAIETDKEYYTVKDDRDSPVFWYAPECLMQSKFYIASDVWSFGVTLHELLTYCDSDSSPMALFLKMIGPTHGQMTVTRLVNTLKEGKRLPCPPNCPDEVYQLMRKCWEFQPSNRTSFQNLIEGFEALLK

Common to all, as to assay: proximity labelling; TurboID-tagged bait stably expressed in MRC-5/hTERT; serum-starved 20 h; 1000 IU/mL IFN-α2 for 0, 20, 60 or 120 min; 500 μM biotin for the last 15 min; RIPA lysis; streptavidin magnetic beads; label-free mass spectrometry, SAINTexpress against the similarly localized TurboID-GFP control (FC ≥ 4 stringent or FC ≥ 2 relaxed)
For one assay, the target named is T1, TurboID-V5-IRF9 (human) (UniProt Q00978).
T1 sequence: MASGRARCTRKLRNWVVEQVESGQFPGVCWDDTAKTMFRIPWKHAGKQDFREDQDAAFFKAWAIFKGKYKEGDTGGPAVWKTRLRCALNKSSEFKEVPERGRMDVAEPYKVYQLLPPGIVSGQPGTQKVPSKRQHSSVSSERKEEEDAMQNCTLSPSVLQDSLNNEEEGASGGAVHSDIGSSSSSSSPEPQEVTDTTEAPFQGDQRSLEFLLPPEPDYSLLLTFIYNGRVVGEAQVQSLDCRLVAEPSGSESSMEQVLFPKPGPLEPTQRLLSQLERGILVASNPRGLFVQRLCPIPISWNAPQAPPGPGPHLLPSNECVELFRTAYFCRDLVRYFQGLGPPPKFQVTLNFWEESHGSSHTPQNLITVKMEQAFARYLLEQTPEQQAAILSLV

The target in assay [1] is TurboID-V5-TYK2 (stable in MRC-5/hTERT) (human) (UniProt P29597).
The target of assay [2] is TurboID-V5-STAT2 (human), P52630. The note with it: remark: other sources report otherwise.
The target of assay [3] is TurboID-V5-JAK1 (stable in MRC-5/hTERT) (human) (UniProt P23458).

Results are given in words; binding and its absence hold for the method and conditions named. Binding seen in cells or lysates may run through a third protein. A yes stands for co-enrichment or nearness to the bait. Other partners may have been found. For part of these data: Tags and fused reporters may be left off the sequences shown.

B1: GIGYF2 (protein, UniProt Q6Y7W6 1-1299)
chain: MAAETQTLNFGPEWLRALSSGGSITSPPLSPALPKYKLADYRYGREEMLALFLKDNKIPSDLLDKEFLPILQEEPLPPLALVPFTEEEQRNFSMSVNSAAVLRLTGRGGGGTVVGAPRGRSSSRGRGRGRGECGFYQRSFDEVEGVFGRGGGREMHRSQSWEERGDRRFEKPGRKDVGRPNFEEGGPTSVGRKHEFIRSESENWRIFREEQNGEDEDGGWRLAGSRRDGERWRPHSPDGPRSAGWREHMERRRRFEFDFRDRDDERGYRRVRSGSGSIDDDRDSLPEWCLEDAEEEMGTFDSSGAFLSLKKVQKEPIPEEQEMDFRPVDEGEECSDSEGSHNEEAKEPDKTNKKEGEKTDRVGVEASEETPQTSSSSARPGTPSDHQSQEASQFERKDEPKTEQTEKAEEETRMENSLPAKVPSRGDEMVADVQQPLSQIPSDTASPLLILPPPVPNPSPTLRPVETPVVGAPGMGSVSTEPDDEEGLKHLEQQAEKMVAYLQDSALDDERLASKLQEHRAKGVSIPLMHEAMQKWYYKDPQGEIQGPFNNQEMAEWFQAGYFTMSLLVKRACDESFQPLGDIMKMWGRVPFSPGPAPPPHMGELDQERLTRQQELTALYQMQHLQYQQFLIQQQYAQVLAQQQKAALSSQQQQQLALLLQQFQTLKMRISDQNIIPSVTRSVSVPDTGSIWELQPTASQPTVWEGGSVWDLPLDTTTPGPALEQLQQLEKAKAAKLEQERREAEMRAKREEEERKRQEELRRQQEEILRRQQEEERKRREEEELARRKQEEALRRQREQEIALRRQREEEERQQQEEALRRLEERRREEEERRKQEELLRKQEEEAAKWAREEEEAQRRLEENRLRMEEEAARLRHEEEERKRKELEVQRQKELMRQRQQQQEALRRLQQQQQQQQLAQMKLPSSSTWGQQSNTTACQSQATLSLAEIQKLEEERERQLREEQRRQQRELMKALQQQQQQQQQKLSGWGNVSKPSGTTKSLLEIQQEEARQMQKQQQQQQQHQQPNRARNNTHSNLHTSIGNSVWGSINTGPPNQWASDLVSSIWSNADTKNSNMGFWDDAVKEVGPRNSTNKNKNNASLSKSVGVSNRQNKKVEEEEKLLKLFQGVNKAQDGFTQWCEQMLHALNTANNLDVPTFVSFLKEVESPYEVHDYIRAYLGDTSEAKEFAKQFLERRAKQKANQQRQQQQLPQQQQQQPPQQPPQQPQQQDSVWGMNHSTLHSVFQTNQSNNQQSNFEAVQSGKKKKKQKMVRADPSLLGFSVNASSERLNMGEIETLDDY
Take B1: the binding entry with TurboID-V5-IRF9 (human) is listed as “binds”.

B2: PJA2 (endogenous, MRC-5/hTERT) (enzyme, UniProt O43164 1-708)
chain: MSQYTEKEPAAMDQESGKAVWPKPAGGYQTITGRRYGRRHAYVSFKPCMTRHERSLGRAGDDYEVLELDDVPKENSSGSSPLDQVDSSLPSEPIFEKSETEIPTCGSALNQTTESSQSFVAVHHSEEGRDTLGSSTNLHNHSEGEYIPGACSASSVQNGIALVHTDSYDPDGKHGEDNDHLQLSAEVVEGSRYQESLGNTVFELENREAEAYTGLSPPVPSFNCEVRDEFEELDSVPLVKSSAGDTEFVHQNSQEIQRSSQDEMVSTKQQNNTSQERQTEHSPEDAACGPGHICSEQNTNDREKNHGSSPEQVVRPKVRKLISSSQVDQETGFNRHEAKQRSVQRWREALEVEESGSDDLLIKCEEYDGEHDCMFLDPPYSRVITQRETENNQMTSESGATAGRQEVDNTFWNGCGDYYQLYDKDEDSSECSDGEWSASLPHRFSGTEKDQSSSDESWETLPGKDENEPELQSDSSGPEEENQELSLQEGEQTSLEEGEIPWLQYNEVNESSSDEGNEPANEFAQPAFMLDGNNNLEDDSSVSEDLDVDWSLFDGFADGLGVAEAISYVDPQFLTYMALEERLAQAMETALAHLESLAVDVEVANPPASKESIDGLPETLVLEDHTAIGQEQCCPICCSEYIKDDIATELPCHHFFHKPCVSIWLQKSGTCPVCRRHFPPAVIEASAAPSSEPDPDAPPSNDSIAEAP
As to B2, the binding entry in assay [1] is on record as “binds”.

B3: STAT6, P42226 1-847 (protein)
chain: MSLWGLVSKMPPEKVQRLYVDFPQHLRHLLGDWLESQPWEFLVGSDAFCCNLASALLSDTVQHLQASVGEQGEGSTILQHISTLESIYQRDPLKLVATFRQILQGEKKAVMEQFRHLPMPFHWKQEELKFKTGLRRLQHRVGEIHLLREALQKGAEAGQVSLHSLIETPANGTGPSEALAMLLQETTGELEAAKALVLKRIQIWKRQQQLAGNGAPFEESLAPLQERCESLVDIYSQLQQEVGAAGGELEPKTRASLTGRLDEVLRTLVTSCFLVEKQPPQVLKTQTKFQAGVRFLLGLRFLGAPAKPPLVRADMVTEKQARELSVPQGPGAGAESTGEIINNTVPLENSIPGNCCSALFKNLLLKKIKRCERKGTESVTEEKCAVLFSASFTLGPGKLPIQLQALSLPLVVIVHGNQDNNAKATILWDNAFSEMDRVPFVVAERVPWEKMCETLNLKFMAEVGTNRGLLPEHFLFLAQKIFNDNSLSMEAFQHRSVSWSQFNKEILLGRGFTFWQWFDGVLDLTKRCLRSYWSDRLIIGFISKQYVTSLLLNEPDGTFLLRFSDSEIGGITIAHVIRGQDGSPQIENIQPFSAKDLSIRSLGDRIRDLAQLKNLYPKKPKDEAFRSHYKPEQMGKDGRGYVPATIKMTVERDQPLPTPELQMPTMVPSYDLGMAPDSSMSMQLGPDMVPQVYPPHSHSIPPYQGLSPEESVNVLSAFQEPHLQMPPSLGQMSLPFDQPHPQGLLPCQPQEHAVSSPDPLLCSDVTMVEDSCLSQPVTAFPQGTWIGEDIFPPLLPPTEQDLTKLLLEGQGESGGGSLGAQPLLQPSHYGQSGISMSHMDLRANPSW
In the case of B3, in assay [2], the binding entry was “binds”.

B4: TurboID-V5-IRF9, Q00978 1-393 (protein)
chain: T1 sequence
For B4, the binding entry in assay [2] is “binds”.

B5: OSMR (receptor, UniProt Q99650 28-979)
chain: ERLPLTPVSLKVSTNSTRQSLHLQWTVHNLPYHQELKMVFQIQISRIETSNVIWVGNYSTTVKWNQVLHWSWESELPLECATHFVRIKSLVDDAKFPEPNFWSNWSSWEEVSVQDSTGQDILFVFPKDKLVEEGTNVTICYVSRNIQNNVSCYLEGKQIHGEQLDPHVTAFNLNSVPFIRNKGTNIYCEASQGNVSEGMKGIVLFVSKVLEEPKDFSCETEDFKTLHCTWDPGTDTALGWSKQPSQSYTLFESFSGEKKLCTHKNWCNWQITQDSQETYNFTLIAENYLRKRSVNILFNLTHRVYLMNPFSVNFENVNATNAIMTWKVHSIRNNFTYLCQIELHGEGKMMQYNVSIKVNGEYFLSELEPATEYMARVRCADASHFWKWSEWSGQNFTTLEAAPSEAPDVWRIVSLEPGNHTVTLFWKPLSKLHANGKILFYNVVVENLDKPSSSELHSIPAPANSTKLILDRCSYQICVIANNSVGASPASVIVISADPENKEVEEERIAGTEGGFSLSWKPQPGDVIGYVVDWCDHTQDVLGDFQWKNVGPNTTSTVISTDAFRPGVRYDFRIYGLSTKRIACLLEKKTGYSQELAPSDNPHVLVDTLTSHSFTLSWKDYSTESQPGFIQGYHVYLKSKARQCHPRFEKAVLSDGSECCKYKIDNPEEKALIVDNLKPESFYEFFITPFTSAGEGPSATFTKVTTPDEHSSMLIHILLPMVFCVLLIMVMCYLKSQWIKETCYPDIPDPYKSSILSLIKFKENPHLIIMNVSDCIPDAIEVVSKPEGTKIQFLGTRKSLTETELTKPNYLYLLPTEKNHSGPGPCICFENLTYNQAASDSGSCGHVPVSPKAPSMLGLMTSPENVLKALEKNYMNSLGEIPAGETSLNYVSQLASPMFGDKDSLPTNPVEAPHCSEYKMQMAVSLRLALPPPTENSSLSSITLLDPGEHYC
With B5, the binding result in assay [3] and in assay [1] was “binds” each time.
